This passage reports binding results from doi:10.1101/2024.10.16.24315096.

For assay [1], the target named is T1, FilGAP p.Gln671Ter, HA-tagged (human) (UniProt Q8N264).
T1 sequence: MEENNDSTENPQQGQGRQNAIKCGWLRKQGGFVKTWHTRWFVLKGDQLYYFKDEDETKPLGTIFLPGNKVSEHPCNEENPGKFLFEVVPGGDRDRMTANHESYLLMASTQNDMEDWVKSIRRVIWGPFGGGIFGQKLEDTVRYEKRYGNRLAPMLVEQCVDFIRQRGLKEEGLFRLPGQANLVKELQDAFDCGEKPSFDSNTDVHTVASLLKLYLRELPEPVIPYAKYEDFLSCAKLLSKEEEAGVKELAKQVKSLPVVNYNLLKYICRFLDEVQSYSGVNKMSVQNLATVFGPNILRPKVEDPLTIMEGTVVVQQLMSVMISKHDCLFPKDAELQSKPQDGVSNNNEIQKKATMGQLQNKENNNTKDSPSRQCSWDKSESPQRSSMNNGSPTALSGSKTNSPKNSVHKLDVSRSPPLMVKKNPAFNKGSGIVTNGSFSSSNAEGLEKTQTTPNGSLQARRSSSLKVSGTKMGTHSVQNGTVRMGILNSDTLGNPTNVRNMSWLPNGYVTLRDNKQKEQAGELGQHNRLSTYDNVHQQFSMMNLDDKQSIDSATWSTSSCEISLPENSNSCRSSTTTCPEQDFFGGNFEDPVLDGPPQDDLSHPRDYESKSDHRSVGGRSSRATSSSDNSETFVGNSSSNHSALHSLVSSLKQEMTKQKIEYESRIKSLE
Put plainly: co-IP.

The target of assay [2] is FilGAP wild-type (Filamin A binding RhoGTPase-activating protein, encoded by ARHGAP24) (human) (UniProt Q8N264). Put plainly: co-IP.

No constants are given. Whether binding was seen depends on the method and setting. Binding seen in cells or lysates may run through a third protein. Some results given as binding are weak or reduced against the parent protein; the word gives no strength. For some assays here: Tags and fused reporters may be left off the sequences shown.

B1: FilGAP wild-type (Filamin A binding RhoGTPase-activating protein, encoded by ARHGAP24) (protein, UniProt Q8N264-1 1-748)
chain: MEENNDSTENPQQGQGRQNAIKCGWLRKQGGFVKTWHTRWFVLKGDQLYYFKDEDETKPLGTIFLPGNKVSEHPCNEENPGKFLFEVVPGGDRDRMTANHESYLLMASTQNDMEDWVKSIRRVIWGPFGGGIFGQKLEDTVRYEKRYGNRLAPMLVEQCVDFIRQRGLKEEGLFRLPGQANLVKELQDAFDCGEKPSFDSNTDVHTVASLLKLYLRELPEPVIPYAKYEDFLSCAKLLSKEEEAGVKELAKQVKSLPVVNYNLLKYICRFLDEVQSYSGVNKMSVQNLATVFGPNILRPKVEDPLTIMEGTVVVQQLMSVMISKHDCLFPKDAELQSKPQDGVSNNNEIQKKATMGQLQNKENNNTKDSPSRQCSWDKSESPQRSSMNNGSPTALSGSKTNSPKNSVHKLDVSRSPPLMVKKNPAFNKGSGIVTNGSFSSSNAEGLEKTQTTPNGSLQARRSSSLKVSGTKMGTHSVQNGTVRMGILNSDTLGNPTNVRNMSWLPNGYVTLRDNKQKEQAGELGQHNRLSTYDNVHQQFSMMNLDDKQSIDSATWSTSSCEISLPENSNSCRSSTTTCPEQDFFGGNFEDPVLDGPPQDDLSHPRDYESKSDHRSVGGRSSRATSSSDNSETFVGNSSSNHSALHSLVSSLKQEMTKQKIEYESRIKSLEQRNLTLETEMMSLHDELDQERKKFTMIEIKMRNAERAKEDAEKRNDMLQKEMEQFFSTFGELTVEPRRTERGNTIWIQ
Consider B1, for which the results for the binding entry in assay [1] and in assay [2] were “no binding” and “binds”, respectively.
